# Experimental data: PubChem BioAssay AID330 (DTP/NCI, 2004)
# The list does not hold the whole screen: it gathers tests that were run many times, whatever their T/C, doses with no T/C, and many T/C values between a quarter and a half above the control. Other doses and runs of a compound stand elsewhere. T/C: endpoint of the treated group in % of that of the vehicle group. Some entries give survivors of the animals treated and no T/C: the source files T/C as zero there, which appears to mark a toxic dose or a test without result, not a measured value. Some doses without a T/C left all or most animals alive at the check, yet need not have been tolerated: the source hardly ever lists a survival T/C far under the control, and the zero likely stands for such cases as well. Survivors were counted at the toxicity check, usually on the fifth day, unless a day is given; later deaths do not show. Schedule codes are those of the source, read here as Q, the interval in days (D) or hours (H), X, the number of doses. Some doses were run more than once; the results are listed from low to high. Where survival is the endpoint, this PubChem deposit counts one and a half times the control or more as active, and values a quarter to a half above the control carry no call in these data; other NCI protocols may use other cut-offs. Some T/C values are followed by the survivors on the day toxicity was checked, most often the fifth; without a count, all were alive then. Counts like (3×) stand for listed records that agree.
# System: P388 leukemia ip, CD2F1 mice, survival T/C
# Experiment: NCI In Vivo Anticancer Drug Screen. Data for tumor model P388 Leukemia (intraperitoneal) in CD2F1 (CDF1) mice
# Conditions: T/C endpoint: median survival time, higher T/C = longer survival
# [1] = dose: 60.0 mg/kg/injection, schedule: Q01DX005 (ip), vehicle: saline with Tween-80
# [2] = dose: 120.0 mg/kg/injection, schedule: Q01DX005 (ip), vehicle: saline with Tween-80
# [3] = dose: 240.0 mg/kg/injection, schedule: Q01DX005 (ip), vehicle: saline with Tween-80
# [4] = dose: 50.0 mg/kg/injection, schedule: Q01DX005 (ip), vehicle: saline with Tween-80
# [5] = dose: 100.0 mg/kg/injection, schedule: Q01DX005 (ip), vehicle: saline with Tween-80
# [6] = dose: 200.0 mg/kg/injection, schedule: Q01DX005 (ip), vehicle: saline with Tween-80
# [7] = dose: 240.0 mg/kg/injection, schedule: Q01DX005 (ip), vehicle: Klucel (hydroxypropylcellulose) (HPC)
# [8] = dose: 50.0 mg/kg/injection, schedule: Q01DX009 (ip), vehicle: saline with Tween-80
# [9] = dose: 100.0 mg/kg/injection, schedule: Q01DX009 (ip), vehicle: saline with Tween-80
# [10] = dose: 200.0 mg/kg/injection, schedule: Q01DX009 (ip), vehicle: saline with Tween-80
# [11] = dose: 4.8 mg/kg/injection, schedule: Q01DX009 (ip), vehicle: saline with Tween-80
# [12] = dose: 100.0 mg/kg/injection, schedule: Q01DX005 (ip), vehicle: Klucel (hydroxypropylcellulose) (HPC)
# [13] = dose: 200.0 mg/kg/injection, schedule: Q01DX005 (ip), vehicle: Klucel (hydroxypropylcellulose) (HPC)
# [14] = dose: 100.0 mg/kg/injection, schedule: Q01DX005 (ip), vehicle: saline
# [15] = dose: 200.0 mg/kg/injection, schedule: Q01DX005 (ip), vehicle: saline
# [16] = dose: 400.0 mg/kg/injection, schedule: Q04DX003 (ip), vehicle: saline with Tween-80
# [17] = dose: 200.0 mg/kg/injection, schedule: Q04DX003 (ip), vehicle: saline with Tween-80
structure (smiles),measurement,setting,value
CN(Cc1cnc2nc(N)nc(N)c2n1)c1ccc(C(=O)NC(CCC(=O)OCc2cc3c(cc2Cl)OCO3)C(=O)OCc2cc3c(cc2Cl)OCO3)cc1 (stereo unspecified),survivor count,"dose: 7.5 mg/kg/injection, schedule: Q01DX005 (ip), vehicle: saline with Tween-80",6 of 6
same,survivor count,"dose: 15.0 mg/kg/injection, schedule: Q01DX005 (ip), vehicle: saline with Tween-80",6 of 6
same,survivor count,"dose: 30.0 mg/kg/injection, schedule: Q01DX005 (ip), vehicle: saline with Tween-80",6 of 6
same,survivor count,[1],4 of 6
same,survivor count,[2],4 of 6
same,survivor count,[3],5 of 6
CC1=CC(=O)C(O)C2(C)C1CC1OC(=O)C(OC(=O)/C=C(\C)C(C)C)C3C(C)C(O)C4(O)OCC13C42 (stereo unspecified),T/C,"dose: 1.0 mg/kg/injection, schedule: Q01DX005 (ip), vehicle: saline + alcohol",138 % of control
same,survivor count,"dose: 2.0 mg/kg/injection, schedule: Q01DX005 (ip), vehicle: saline + alcohol",1 of 6 and 3 of 6
same,survivor count,"dose: 4.0 mg/kg/injection, schedule: Q01DX005 (ip), vehicle: saline + alcohol",0 of 6
same,survivor count,"dose: 8.0 mg/kg/injection, schedule: Q01DX005 (ip), vehicle: saline + alcohol",0 of 6
C/C(=N\NC(=S)N1CCC(c2ccccc2)CC1)c1ncccn1,T/C,"dose: 25.0 mg/kg/injection, schedule: Q01DX005 (ip), vehicle: saline with Tween-80",127 % of control
same,T/C,[4],131 % of control
same,T/C,[5],149 % of control
same,survivor count,[5],6 of 6
same,survivor count,[6],0 of 6
CS(=O)CC(C)(O)C1OC(=O)C=C2C3(C)CC4OC4C4(C)C(=O)OC(C34)C3OC231 (stereo unspecified),T/C,"dose: 5.0 mg/kg/injection, schedule: Q01DX009 (ip), vehicle: DMSO",128 % of control
same,T/C,"dose: 10.0 mg/kg/injection, schedule: Q01DX009 (ip), vehicle: DMSO",144 % of control
CCN(CC)Cc1c(C)[nH]c2cc3c(cc2c1=O)CCCC3,survivor count,[7],0 of 6
CC(=O)OC1CC2C(C)(C)OC(=O)C=CC2(C)C2CCC3(C)C(c4ccoc4)C(=O)C4OC43C12C (stereo unspecified),survivor count,"dose: 120.0 mg/kg/injection, schedule: Q01DX005 (ip), vehicle: Klucel (hydroxypropylcellulose) (HPC)",5 of 5
CN(C)C(=S)S(=O)(=O)c1ccc(Cl)cc1,survivor count,[8],6 of 6
same,survivor count,[9],2 of 6
same,survivor count,"dose: 100.0 mg/kg/injection, schedule: Q04DX002 (ip), vehicle: Klucel (hydroxypropylcellulose) (HPC)",0 of 6 and 3 of 6
same,survivor count,[10],0 of 6
same,survivor count,"dose: 200.0 mg/kg/injection, schedule: Q04DX002 (ip), vehicle: Klucel (hydroxypropylcellulose) (HPC)",0 of 6
same,survivor count,"dose: 400.0 mg/kg/injection, schedule: Q04DX002 (ip), vehicle: Klucel (hydroxypropylcellulose) (HPC)",0 of 6
COc1cc(C2c3cc4c(cc3CC3COC(=O)C32)OCO4)cc(OC)c1O (stereo unspecified),T/C,"dose: 2.1 mg/kg/injection, schedule: Q01DX009 (ip), vehicle: saline with Tween-80",132 % of control
same,T/C,[11],125 % of control
same,survivor count,[11],3 of 4
same,survivor count,"dose: 7.2 mg/kg/injection, schedule: Q01DX009 (ip), vehicle: saline with Tween-80",4 of 4
same,survivor count,"dose: 11.0 mg/kg/injection, schedule: Q01DX009 (ip), vehicle: saline with Tween-80",4 of 4
same,survivor count,"dose: 67.0 mg/kg/injection, schedule: Q01DX009 (ip), vehicle: saline with Tween-80",1 of 4
Clc1ccc(OCCC(Cn2ccnc2)c2ccc(Cl)cc2Cl)c(Cl)c1 (stereo unspecified),survivor count,[8],2 of 6
same,survivor count,[9],1 of 6 and 3 of 6
same,survivor count,[10],0 of 6
Cc1nc2ccccc2n(CC2CCCN3CCCC[C@H]23)c1=O (stereo partly specified),survivor count,[6],0 of 6
CC(C)N(C(=S)Sc1c2ccccc2c(Br)c2ccccc12)C(C)C,survivor count,[12],6 of 6
same,survivor count,[13],6 of 6
CCOC(=O)CC1(O)CCC2C3CC=C4CC(OC5CCCCO5)CCC4(C)C3CCC21C (stereo unspecified),survivor count,"dose: 25.0 mg/kg/injection, schedule: Q01DX009 (ip), vehicle: saline with Tween-80",6 of 6
same,survivor count,[8],6 of 6
O=NNc1nc(-c2cccnc2)nc2ccccc12,survivor count,"dose: 20.0 mg/kg/injection, schedule: Q01DX009 (ip), vehicle: water",6 of 6
Nc1nc(SN=Nc2ccc(S(N)(=O)=O)cc2)c2[nH]cnc2n1,survivor count,"dose: 30.0 mg/kg/injection, schedule: Q01DX009 (ip), vehicle: saline",6 of 6
CN(C)CCSC1=Nc2ccc(Cl)cc2C(c2ccccc2Cl)N(C)C1 (stereo unspecified),survivor count,[7],2 of 6
CCOC(=O)C[N+]12CCC34c5ccccc5N5C(=O)CC6OCC=C(C1)C(CC32)C6C54 (stereo unspecified),survivor count,[8],0 of 6 and 1 of 6
same,survivor count,[9],0 of 6
same,survivor count,[10],0 of 6
O=S(=O)(O)c1cc(N=C=S)ccc1/C=C/c1ccc(N=C=S)cc1S(=O)(=O)O,T/C,"dose: 50.0 mg/kg/injection, schedule: Q01DX005 (ip), vehicle: saline","113, 116, 119, 123 % of control"
same,T/C,[14],126 (2×) and 129 % of control
same,survivor count,[14],6 of 6
same,survivor count,[15],0 of 6 and 4 of 5
O=C([O-])C(=O)[N-]CCC[N-]C(=O)C(=O)[N-]CCC[N-]C(=O)C(=O)[O-].[Cu+2].[Cu+2].[Na+],survivor count,[1],0 of 6
same,survivor count,[2],0 of 6
same,survivor count,[3],0 of 6
CCOC(=O)c1cc(/C=C/c2ccc(Cl)cc2)on1,survivor count,[3],0 of 6
CCCCCCCCCCCCCCCCOP(=O)(O)OCCCCCCCCCCCCCCCC,survivor count,[16],6 of 6
CC(=O)C1=C(C)NC(C)=C(C(C)=O)C1c1cccc([N+](=O)[O-])c1,survivor count,[17],6 of 6
same,survivor count,[16],6 of 6
Cc1cc2cc3c(=O)[nH]c(=O)cc-3n(CC(O)C(O)C(O)CO)c2cc1C (stereo unspecified),survivor count,"dose: 200.0 mg/kg/injection, schedule: Q01DX009 (ip), vehicle: other",6 of 6
C1CCC2=NCCCN2CC1,survivor count,"dose: 50.0 mg/kg/injection, schedule: Q01DX009 (ip), vehicle: Klucel (hydroxypropylcellulose) (HPC)",0 of 6
O=[N+]([O-])c1ccc(/C=C(/c2ccc([N+](=O)[O-])o2)S(=O)(=O)c2ccccc2)o1,survivor count,"dose: 200.0 mg/kg/injection, schedule: Q01DX009 (ip), vehicle: suspension in saline",3 of 6
CN1C2CCC1C(Br)C=C2c1ccccc1 (stereo unspecified),survivor count,[14],0 of 6
same,survivor count,[15],0 of 6
N#Cc1c(N)nsc1N1CCOCC1,survivor count,[4],3 of 6
same,survivor count,[5],0 of 6
same,survivor count,[6],0 of 6
COc1ccc2c(N=[N+]=[N-])ccnc2c1,survivor count,[3],0 of 6
C=C1C(=O)OC2/C=C(\CO)C3OC3C3OC3(C)CC(OC(=O)/C(=C/C)CO)C12 (stereo unspecified),T/C,"dose: 12.5 mg/kg/injection, schedule: Q01DX005 (ip), vehicle: Klucel (hydroxypropylcellulose) (HPC)",134 % of control
same,T/C,"dose: 25.0 mg/kg/injection, schedule: Q01DX005 (ip), vehicle: Klucel (hydroxypropylcellulose) (HPC)","93, 95, 97 [5 of 6 alive], 100 % of control"
same,survivor count,[12],0 of 6
same,survivor count,[13],0 of 6
COc1ccc2c(c1OC)OCC(CN(C)C)C2=O (stereo unspecified),T/C,"dose: 120.0 mg/kg/injection, schedule: Q01DX005 (ip), vehicle: saline",145 % of control
same,survivor count,"dose: 240.0 mg/kg/injection, schedule: Q01DX005 (ip), vehicle: saline",1 of 6
CCC1CCCCN1C(=S)N/N=C(\C)c1ccccn1 (stereo unspecified),T/C,"dose: 50.0 mg/kg/injection, schedule: Q04DX003 (ip), vehicle: saline with Tween-80",125 % of control
same,survivor count,"dose: 100.0 mg/kg/injection, schedule: Q04DX003 (ip), vehicle: saline with Tween-80",2 of 6 and 3 of 6
same,survivor count,[17],1 of 6
same,survivor count,[16],0 of 6
O=c1[nH]c2cc(Cl)ccc2c(CCl)c1Cl,T/C,[9],125 % of control
